Measurements taken from article PMC7665193.
These are yes or no findings as the source states them, for the method shown. In cells and extracts the contact can be indirect. Some results given as binding are weak or reduced against the parent protein; the word gives no strength. Sequences can lack the tags named with a protein.

Target: T1, Flag-UBE2F (UniProt Q969M7)
T1 sequence: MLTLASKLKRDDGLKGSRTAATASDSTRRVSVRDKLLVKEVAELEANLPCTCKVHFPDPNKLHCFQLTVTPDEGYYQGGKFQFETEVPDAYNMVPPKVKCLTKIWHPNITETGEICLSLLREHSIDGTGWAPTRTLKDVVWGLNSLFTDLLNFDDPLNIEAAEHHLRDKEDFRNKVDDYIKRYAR
Assay: co-IP; Flag-UBE2F precipitated from transfected H1299 cell lysate on anti-Flag M2 affinity resin, 3 h at 4 °C, NP-40 buffer (50 mM Tris-HCl pH 7.4, 150 mM NaCl, 0.1% NP-40); cells treated with cisplatin (Cis) or carboplatin (Carbo) for 48 h; endogenous RBX1, RBX2 and NOXA detected by western blot

binding: binds
B1: NOXA (protein, UniProt Q13794 1-54)
chain: MPGKKARKNAQPSPARAPAELEVECATQLRRFGDKLNFRQKLLNLISKLFCSGT
